Where a name gives a salt, the structure may show the parent alone. This is one part of the list. Hit calls seldom repeat between salt and free forms of one compound.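 Kinases were expressed as nanoluciferase fusions in K562 cells and luminescence was read every 4 h between 2 and 18 h as percent of control, DMSO set to 100% and a positive control to 0%. A time point counts as decreased when the signal drops significantly (2 sigma). The hit call is the authors' own, does not follow from the count of time points alone, and its rule is not shown.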
Key:
Assay in all cases: number of time points (of 5) at which kinase-Nluc abundance scored as decreased, DMSO-normalised (count); higher = more persistent destabilization
Conditions in all cases: K562; 2-18 h
ALK = ALK (UniProt Q9UM73)
ARAF = ARAF (UniProt P10398)
AURKA = AURKA (UniProt O14965)
AURKB = AURKB (UniProt Q96GD4)
AURKC = AURKC (UniProt Q9UQB9)
BLK = BLK (UniProt P51451)
BMX = BMX (UniProt P51813)
BRAF = BRAF (UniProt P15056)
BRAF_V600E = system: BRAF_V600E
BTK = BTK (UniProt Q06187)

The chains behind the UniProt entries cited, without tags or fusion partners. Where a name states a change or a piece, a line headed by the entry shows the natural chain unless it says otherwise.
UniProt Q9UM73: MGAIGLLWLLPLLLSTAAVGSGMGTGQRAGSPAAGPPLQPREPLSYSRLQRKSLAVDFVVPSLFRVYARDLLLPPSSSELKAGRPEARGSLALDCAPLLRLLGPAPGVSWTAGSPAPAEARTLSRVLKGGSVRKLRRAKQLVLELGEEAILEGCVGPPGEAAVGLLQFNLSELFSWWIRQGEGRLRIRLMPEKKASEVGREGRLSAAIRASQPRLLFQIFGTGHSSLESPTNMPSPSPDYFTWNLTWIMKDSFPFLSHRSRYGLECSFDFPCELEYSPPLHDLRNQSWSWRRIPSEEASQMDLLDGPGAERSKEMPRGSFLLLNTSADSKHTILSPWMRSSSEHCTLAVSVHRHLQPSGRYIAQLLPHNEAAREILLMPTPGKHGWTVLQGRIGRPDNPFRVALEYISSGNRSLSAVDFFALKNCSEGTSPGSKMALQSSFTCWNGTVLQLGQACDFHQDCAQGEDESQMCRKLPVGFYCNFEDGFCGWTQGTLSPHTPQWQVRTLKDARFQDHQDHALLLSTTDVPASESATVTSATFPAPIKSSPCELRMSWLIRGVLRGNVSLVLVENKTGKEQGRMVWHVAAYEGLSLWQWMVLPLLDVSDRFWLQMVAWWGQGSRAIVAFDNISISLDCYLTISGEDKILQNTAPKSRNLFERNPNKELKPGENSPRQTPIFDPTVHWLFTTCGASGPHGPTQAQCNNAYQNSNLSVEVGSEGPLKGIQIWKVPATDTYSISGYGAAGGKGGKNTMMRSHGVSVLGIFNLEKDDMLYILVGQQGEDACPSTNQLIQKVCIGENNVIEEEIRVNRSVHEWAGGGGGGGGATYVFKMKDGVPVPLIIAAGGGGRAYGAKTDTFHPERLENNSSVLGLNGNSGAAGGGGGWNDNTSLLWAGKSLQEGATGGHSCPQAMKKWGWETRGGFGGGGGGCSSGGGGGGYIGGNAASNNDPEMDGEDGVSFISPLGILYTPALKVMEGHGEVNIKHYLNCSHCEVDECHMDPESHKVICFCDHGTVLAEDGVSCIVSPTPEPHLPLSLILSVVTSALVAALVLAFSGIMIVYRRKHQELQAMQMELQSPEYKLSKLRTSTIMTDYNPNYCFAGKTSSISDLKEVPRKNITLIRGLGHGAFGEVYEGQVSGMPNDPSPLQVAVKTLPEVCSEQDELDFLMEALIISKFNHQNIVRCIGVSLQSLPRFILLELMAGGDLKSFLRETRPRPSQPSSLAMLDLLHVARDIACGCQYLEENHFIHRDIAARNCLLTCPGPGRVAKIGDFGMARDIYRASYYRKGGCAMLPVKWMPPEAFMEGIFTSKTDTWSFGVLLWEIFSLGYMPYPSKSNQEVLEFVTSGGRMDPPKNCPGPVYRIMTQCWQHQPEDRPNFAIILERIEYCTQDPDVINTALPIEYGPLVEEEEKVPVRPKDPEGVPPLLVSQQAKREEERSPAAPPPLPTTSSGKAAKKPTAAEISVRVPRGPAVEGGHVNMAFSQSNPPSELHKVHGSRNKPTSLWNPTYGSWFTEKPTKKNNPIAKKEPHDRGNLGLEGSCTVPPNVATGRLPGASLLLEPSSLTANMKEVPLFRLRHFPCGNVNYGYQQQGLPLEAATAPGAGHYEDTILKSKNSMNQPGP
UniProt P10398: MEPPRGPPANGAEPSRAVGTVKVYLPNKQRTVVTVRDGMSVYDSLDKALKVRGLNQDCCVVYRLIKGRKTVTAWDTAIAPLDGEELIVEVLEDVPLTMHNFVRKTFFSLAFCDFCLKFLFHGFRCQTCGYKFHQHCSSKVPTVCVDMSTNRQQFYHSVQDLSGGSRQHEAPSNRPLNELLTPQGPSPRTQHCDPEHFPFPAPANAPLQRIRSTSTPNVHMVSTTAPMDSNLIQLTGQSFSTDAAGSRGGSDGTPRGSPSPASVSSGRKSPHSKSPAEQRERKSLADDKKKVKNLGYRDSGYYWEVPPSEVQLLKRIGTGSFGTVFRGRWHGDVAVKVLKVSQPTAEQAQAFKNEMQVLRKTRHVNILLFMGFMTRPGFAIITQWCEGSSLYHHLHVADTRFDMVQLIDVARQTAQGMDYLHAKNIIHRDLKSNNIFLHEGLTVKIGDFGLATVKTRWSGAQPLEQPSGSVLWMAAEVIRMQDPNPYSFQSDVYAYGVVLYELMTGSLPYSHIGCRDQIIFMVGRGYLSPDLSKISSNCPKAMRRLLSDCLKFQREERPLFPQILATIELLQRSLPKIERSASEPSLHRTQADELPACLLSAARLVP
UniProt O14965: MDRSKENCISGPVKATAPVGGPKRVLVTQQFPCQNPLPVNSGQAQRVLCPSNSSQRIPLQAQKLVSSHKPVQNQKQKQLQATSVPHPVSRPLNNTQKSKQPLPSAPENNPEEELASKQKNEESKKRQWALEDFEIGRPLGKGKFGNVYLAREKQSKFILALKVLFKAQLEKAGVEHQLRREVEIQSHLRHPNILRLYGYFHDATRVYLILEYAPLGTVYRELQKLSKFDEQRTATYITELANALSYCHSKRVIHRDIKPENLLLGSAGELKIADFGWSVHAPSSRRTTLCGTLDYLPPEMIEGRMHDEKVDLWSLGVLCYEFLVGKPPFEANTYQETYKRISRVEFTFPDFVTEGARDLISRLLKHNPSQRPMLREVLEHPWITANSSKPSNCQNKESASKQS
UniProt Q96GD4, whole entry: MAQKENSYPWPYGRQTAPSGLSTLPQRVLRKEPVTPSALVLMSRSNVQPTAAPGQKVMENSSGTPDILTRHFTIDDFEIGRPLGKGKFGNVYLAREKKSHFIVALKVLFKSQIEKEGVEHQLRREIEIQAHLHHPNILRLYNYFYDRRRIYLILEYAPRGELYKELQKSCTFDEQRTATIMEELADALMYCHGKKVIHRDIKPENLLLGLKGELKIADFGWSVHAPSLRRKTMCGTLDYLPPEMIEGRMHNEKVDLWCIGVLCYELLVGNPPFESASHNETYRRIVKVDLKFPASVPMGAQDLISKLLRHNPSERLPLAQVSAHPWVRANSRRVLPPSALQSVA
UniProt Q9UQB9: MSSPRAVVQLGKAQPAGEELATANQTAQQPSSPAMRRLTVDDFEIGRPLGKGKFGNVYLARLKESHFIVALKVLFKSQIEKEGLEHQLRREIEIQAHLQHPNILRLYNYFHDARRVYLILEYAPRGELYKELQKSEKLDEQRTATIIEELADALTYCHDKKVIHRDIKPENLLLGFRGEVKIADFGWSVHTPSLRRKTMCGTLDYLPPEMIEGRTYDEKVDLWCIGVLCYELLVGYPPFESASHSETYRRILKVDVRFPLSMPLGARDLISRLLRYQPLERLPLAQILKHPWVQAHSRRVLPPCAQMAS
UniProt P51451: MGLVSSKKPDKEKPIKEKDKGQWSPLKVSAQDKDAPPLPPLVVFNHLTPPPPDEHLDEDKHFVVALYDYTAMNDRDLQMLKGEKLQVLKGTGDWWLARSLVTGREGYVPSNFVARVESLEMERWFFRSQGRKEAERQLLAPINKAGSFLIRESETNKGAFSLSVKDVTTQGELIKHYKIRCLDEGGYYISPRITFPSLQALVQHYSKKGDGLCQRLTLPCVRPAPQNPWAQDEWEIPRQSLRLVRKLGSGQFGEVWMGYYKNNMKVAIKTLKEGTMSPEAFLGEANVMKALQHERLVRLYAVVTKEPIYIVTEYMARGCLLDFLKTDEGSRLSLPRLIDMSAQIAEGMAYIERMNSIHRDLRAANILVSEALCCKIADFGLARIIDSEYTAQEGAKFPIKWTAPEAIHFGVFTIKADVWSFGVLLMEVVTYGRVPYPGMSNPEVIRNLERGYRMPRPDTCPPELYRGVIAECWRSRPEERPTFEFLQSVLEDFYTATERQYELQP
UniProt P51813: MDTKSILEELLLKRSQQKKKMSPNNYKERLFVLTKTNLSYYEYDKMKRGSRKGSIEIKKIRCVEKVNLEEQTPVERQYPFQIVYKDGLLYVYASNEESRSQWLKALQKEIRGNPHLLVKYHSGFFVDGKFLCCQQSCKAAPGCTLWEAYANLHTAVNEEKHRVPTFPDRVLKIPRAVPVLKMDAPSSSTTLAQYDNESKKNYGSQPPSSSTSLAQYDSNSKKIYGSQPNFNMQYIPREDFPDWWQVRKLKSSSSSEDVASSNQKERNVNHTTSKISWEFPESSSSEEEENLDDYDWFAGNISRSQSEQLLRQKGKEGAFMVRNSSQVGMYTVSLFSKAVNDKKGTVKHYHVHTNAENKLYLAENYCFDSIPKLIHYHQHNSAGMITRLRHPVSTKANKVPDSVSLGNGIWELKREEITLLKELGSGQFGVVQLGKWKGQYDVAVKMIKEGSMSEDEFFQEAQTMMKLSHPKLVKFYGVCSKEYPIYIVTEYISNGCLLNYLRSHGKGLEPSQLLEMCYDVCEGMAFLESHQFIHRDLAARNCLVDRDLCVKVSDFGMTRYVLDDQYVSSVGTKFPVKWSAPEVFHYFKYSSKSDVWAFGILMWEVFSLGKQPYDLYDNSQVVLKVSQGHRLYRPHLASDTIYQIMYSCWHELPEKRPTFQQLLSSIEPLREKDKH
UniProt P15056, whole entry, looked up: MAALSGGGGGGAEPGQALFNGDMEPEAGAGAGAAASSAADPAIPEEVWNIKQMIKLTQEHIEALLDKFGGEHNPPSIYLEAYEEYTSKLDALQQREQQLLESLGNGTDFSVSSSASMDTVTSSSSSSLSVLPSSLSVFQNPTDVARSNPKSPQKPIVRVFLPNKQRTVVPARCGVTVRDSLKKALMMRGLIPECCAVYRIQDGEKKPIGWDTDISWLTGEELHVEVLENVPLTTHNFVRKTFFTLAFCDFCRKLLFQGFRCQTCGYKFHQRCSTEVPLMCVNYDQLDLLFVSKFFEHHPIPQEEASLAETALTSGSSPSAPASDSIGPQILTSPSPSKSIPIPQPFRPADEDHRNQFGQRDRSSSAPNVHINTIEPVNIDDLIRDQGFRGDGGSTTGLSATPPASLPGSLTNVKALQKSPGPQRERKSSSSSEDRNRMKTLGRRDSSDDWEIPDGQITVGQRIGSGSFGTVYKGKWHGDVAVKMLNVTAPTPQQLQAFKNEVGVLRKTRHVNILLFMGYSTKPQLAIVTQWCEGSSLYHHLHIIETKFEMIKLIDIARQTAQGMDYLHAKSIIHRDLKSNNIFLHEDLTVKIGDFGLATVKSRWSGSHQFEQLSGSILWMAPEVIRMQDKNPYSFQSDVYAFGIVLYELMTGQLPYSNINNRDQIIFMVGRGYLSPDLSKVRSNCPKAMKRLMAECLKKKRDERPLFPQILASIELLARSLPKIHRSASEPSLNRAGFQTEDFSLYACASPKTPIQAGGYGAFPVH
UniProt Q06187: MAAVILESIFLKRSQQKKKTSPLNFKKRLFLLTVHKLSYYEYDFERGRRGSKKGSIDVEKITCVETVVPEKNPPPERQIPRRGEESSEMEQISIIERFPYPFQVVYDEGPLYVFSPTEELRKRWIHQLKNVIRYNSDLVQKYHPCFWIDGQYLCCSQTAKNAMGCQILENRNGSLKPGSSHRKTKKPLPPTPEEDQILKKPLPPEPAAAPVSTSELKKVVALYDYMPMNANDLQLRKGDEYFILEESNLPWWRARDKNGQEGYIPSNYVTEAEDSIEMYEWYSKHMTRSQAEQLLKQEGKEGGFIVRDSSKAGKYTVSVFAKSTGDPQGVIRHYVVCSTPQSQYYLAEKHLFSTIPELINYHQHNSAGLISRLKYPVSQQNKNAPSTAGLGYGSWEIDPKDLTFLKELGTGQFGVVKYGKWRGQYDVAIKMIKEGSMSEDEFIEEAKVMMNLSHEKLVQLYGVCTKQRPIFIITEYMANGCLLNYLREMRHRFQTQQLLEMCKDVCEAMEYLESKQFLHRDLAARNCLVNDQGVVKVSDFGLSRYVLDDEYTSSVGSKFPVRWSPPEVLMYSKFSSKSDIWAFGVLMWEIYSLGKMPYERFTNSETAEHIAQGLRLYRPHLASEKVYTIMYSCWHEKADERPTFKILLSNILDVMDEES

Structure (SMILES) | number of time points (ALK) | number of time points (ARAF) | number of time points (AURKA) | number of time points (AURKB) | number of time points (AURKC) | number of time points (BLK) | number of time points (BMX) | number of time points (BRAF) | number of time points (BRAF_V600E) | number of time points (BTK)
COc1ccc(S(=O)(=O)NCc2ccc(C(=O)NCCc3ccc(Cl)cn3)cc2)cc1 (10 µM) | 0 | 0 | 0 | 0 | 0 | 0 | 0 | 0 | 0 | 0
Cc1nc(-c2cnn(C)c2)nc2c1[nH]c1ncc(-c3ccc(N4CCN(C)CC4)cc3)cc12 [GNE 220 (hydrochloride)] (10 µM) | 0 | 0 | 0 | 0 | 0 | 0 | 0 | 0 | 0 | 0
COc1nn(C)cc1Nc1nccc(-c2c[nH]c3c(NC(=O)[C@@H](C)N4CCN(C)CC4)cccc23)n1 (10 µM) | 0 | 0 | 0 | 0 | 0 | 0 | 0 | 0 | 0 | 0
CS(=O)(=O)c1ccc(-c2cnc(N)c(-c3ccc(C(F)(F)F)nc3)c2)cc1 (10 µM) | 0 | 0 | 0 | 0 | 0 | 0 | 0 | 0 | 0 | 0
CC/C(=N\NC(=O)c1ccnc(NCCCN2CCOCC2)c1)c1ccc(Cl)cc1O (2.5 µM) | 0 | 0 | 0 | 0 | 0 | 0 | 0 | 0 | 0 | 0
N[C@@H](CCC(=O)O)C(=O)N[C@@H](Cc1c[nH]c2ccccc12)C(=O)O [Oglufanide] (10 µM) | 0 | 0 | 0 | 0 | 0 | 0 | 0 | 0 | 0 | 0
O=C(Nc1nc2ccccc2[nH]1)c1cccc([N+](=O)[O-])c1 [IRAK-4 protein kinase inhibitor 2] (10 µM) | 0 | 0 | 0 | 0 | 0 | 0 | 0 | 0 | 0 | 0
C[C@@H]1COCCN1c1nc(-c2cnc(N)cc2C(F)F)nc(N2[C@H](C)COC[C@@H]2C)n1 (2.5 µM) | 0 | 0 | 3 | 0 | 0 | 0 | 1 | 0 | 2 | 0
CNc1nc(Nc2ccc(C(=O)N3CCOCC3)cc2OC)ncc1Cl (2.5 µM) | 0 | 0 | 0 | 0 | 0 | 0 | 0 | 0 | 0 | 0
O=C1NC(=Nc2c(Cl)cccc2Cl)S/C1=C\c1ccc2nccnc2c1 (2.5 µM) | 2 | 0 | 0 | 0 | 0 | 0 | 0 | 1 | 0 | 0
CC(C)(O)[C@H]1CC[C@H](Nc2ccc3ncc(-c4cccc(C(F)(F)F)c4)n3n2)CC1 (10 µM) | 0 | 0 | 0 | 0 | 0 | 0 | 0 | 0 | 0 | 0
CCN(CC)c1ccc2cc(-c3nc4cc(C)ccc4o3)c(=O)oc2c1 (10 µM) | 0 | 0 | 0 | 0 | 0 | 0 | 0 | 0 | 0 | 0
COc1ccc(-c2coc3cc(O)ccc3c2=O)cc1 [Formononetin] (10 µM) | 0 | 0 | 0 | 0 | 0 | 0 | 0 | 0 | 0 | 0
O=c1[nH]c(C2CCCN2)nc2c1oc1ccc(Cl)cc12 (stereo not given) [XL413 (hydrochloride)] (10 µM) | 0 | 0 | 0 | 0 | 0 | 0 | 0 | 0 | 0 | 0
Cn1ncc2cc(-c3cnc(N)c(Cl)c3N3CCC4(CCNC4=O)CC3)ccc21 (10 µM) | 0 | 0 | 0 | 0 | 0 | 0 | 0 | 0 | 0 | 0
CC(C)c1cccc(C(C)C)c1N1C(=O)c2ccc(N)cc2C1=O (2.5 µM) | 0 | 0 | 0 | 0 | 0 | 0 | 0 | 0 | 0 | 0
N#Cc1ccnc(Nc2cc(C3CCN(C4COC4)CC3)cc(N3CCC(F)(F)C3)n2)c1 (2.5 µM) | 0 | 0 | 0 | 0 | 0 | 0 | 0 | 0 | 0 | 0
CCc1cccc(CC)c1NC(=O)N1Cc2[nH]nc(NC(=O)c3ccc(N4CCN(C)CC4)cc3)c2C1 (2.5 µM) | 2 | 0 | 0 | 0 | 0 | 0 | 3 | 2 | 4 | 0
CN(C)S(=O)(=O)c1ccc2c(c1)/C(=C/c1cc3c([nH]1)CCCC3)C(=O)N2 (2.5 µM) | 0 | 0 | 0 | 0 | 0 | 0 | 0 | 2 | 0 | 0

Structure (SMILES) | number of time points (ALK) | number of time points (ARAF) | number of time points (AURKA) | number of time points (AURKB) | number of time points (AURKC) | number of time points (BLK) | number of time points (BMX) | number of time points (BRAF) | number of time points (BRAF_V600E) | number of time points (BTK)
Nc1nc(N)c2nc(-c3cccc(O)c3)cnc2n1 (10 µM) | 0 | 0 | 0 | 0 | 0 | 0 | 0 | 0 | 0 | 0
CNC(=O)c1ccccc1Oc1nc(Nc2cc(OC)c(OC)c(OC)c2)ncc1Br (2.5 µM) | 0 | 0 | 0 | 0 | 0 | 0 | 0 | 0 | 0 | 0
Nc1n[nH]c2nc(-c3ccc(NS(=O)(=O)c4cc(Cl)ccc4F)cc3)cnc12 (10 µM) | 0 | 0 | 0 | 0 | 0 | 0 | 0 | 0 | 0 | 0
COc1ccccc1C(=O)/C=C/c1ccccc1C(=O)O (10 µM) | 0 | 0 | 0 | 0 | 0 | 0 | 0 | 0 | 0 | 0
Cc1ccc(NC(=O)c2ccnc(C(F)(F)F)c2)cc1-c1cc(OCCO)nc(N2CCOCC2)c1 (10 µM) | 0 | 0 | 0 | 0 | 0 | 0 | 0 | 0 | 0 | 0
NC(=O)N1CCC(CC(=O)N2CCC([C@H]3c4ncc(Br)cc4CCc4cc(Cl)cc(Br)c43)CC2)CC1 [Lonafarnib] (2.5 µM) | 0 | 0 | 0 | 0 | 0 | 0 | 0 | 0 | 0 | 0
O=C(Nc1cccc(C(F)(F)F)c1)c1cccc2cc(Oc3cc(CO)ncn3)ccc12 (10 µM) | 0 | 0 | 0 | 0 | 0 | 0 | 0 | 0 | 0 | 0
C=CC(=O)Nc1cccc(CNc2nc(Nc3ccc(N4CCN(C)CC4)cc3OC)ncc2Cl)c1 (10 µM) | 0 | 0 | 0 | 0 | 0 | 0 | 0 | 0 | 0 | 0
Cc1ccc2c(Nc3cccc(Cl)c3F)nccc2c1NC(=O)c1csc2c(N)ncnc12 [Belvarafenib] (10 µM) | 0 | 0 | 0 | 0 | 0 | 0 | 0 | 5 | 0 | 0
C=CC(=O)N1CCC[C@H](n2c(=O)n(-c3ccc(Oc4ccccc4)cc3)c3c(N)ncnc32)C1 [ONO-4059 (analog)] (10 µM) | 0 | 0 | 0 | 0 | 0 | 0 | 0 | 0 | 0 | 0
CC(C)N1CCN(c2ccc(Nc3ncc4cc5n(c4n3)C3(CCCCC3)CNC5=O)nc2)CC1 [Lerociclib (dihydrochloride)] (2 µM) | 3 | 0 | 3 | 3 | 0 | 0 | 1 | 0 | 0 | 0
CNC(=O)c1cc2c(Oc3ccc(NC(=S)NC(=O)Cc4ccccc4)cc3F)ccnc2cc1OC [TAS-115 mesylate] (10 µM) | 0 | 1 | 0 | 0 | 1 | 0 | 2 | 2 | 3 | 1
COc1cc(N(C)CCN(C)C)c(N)cc1Nc1nccc(-c2cn(C)c3ccccc23)n1 [Mutated EGFR-IN-1] (10 µM) | 0 | 0 | 0 | 0 | 0 | 3 | 0 | 0 | 0 | 0
Cn1cc2cc(C(F)(F)c3nnc4ccc(-c5cnn(C6CC6)c5)nn34)c(F)cc2n1 [Bozitinib] (10 µM) | 0 | 0 | 0 | 0 | 0 | 0 | 0 | 0 | 0 | 0
O=C1NC(=O)C(c2cnc3ccccn23)=C1c1cn2c3c(cc(F)cc13)CNCC2 [GSK-3 inhibitor 1] (2.5 µM) | 0 | 0 | 0 | 0 | 0 | 0 | 0 | 2 | 0 | 0
Cc1ncc(NC(=O)NC2c3ccccc3-c3ccccc32)c(-c2ccccc2)n1 (10 µM) | 0 | 0 | 0 | 0 | 0 | 0 | 0 | 0 | 0 | 0
Nc1ncnc2c1c(-c1ccc(Oc3ccccc3)cc1)nn2C1CCN(CCOCCOCCOc2ccc3c(c2)CN(C2CCC(=O)NC2=O)C3=O)CC1 (stereo not given) (2.5 µM) | 0 | 0 | 0 | 0 | 0 | 0 | 0 | 0 | 0 | 0
Nc1cccc(-c2cc3c(Oc4cccc(O)c4)ncnc3[nH]2)c1 (10 µM) | 2 | 0 | 0 | 0 | 0 | 0 | 1 | 1 | 3 | 0
Cn1cnc([N+](=O)[O-])c1C[N+](C)(C)C/C=C/C(=O)Nc1cc2c(Nc3ccc(Cl)c(Br)c3)ncnc2cn1 [Tarloxotinib (bromide)] (10 µM) | 0 | 0 | 0 | 0 | 0 | 0 | 0 | 0 | 0 | 0

Structures from the list above that contain a nitro group on carbon:
Structure (SMILES) | number of time points (ALK) | number of time points (ARAF) | number of time points (AURKA) | number of time points (AURKB) | number of time points (AURKC) | number of time points (BLK) | number of time points (BMX) | number of time points (BRAF) | number of time points (BRAF_V600E) | number of time points (BTK)
O=C(Nc1nc2ccccc2[nH]1)c1cccc([N+](=O)[O-])c1 [IRAK-4 protein kinase inhibitor 2] (10 µM) | 0 | 0 | 0 | 0 | 0 | 0 | 0 | 0 | 0 | 0
Cn1cnc([N+](=O)[O-])c1C[N+](C)(C)C/C=C/C(=O)Nc1cc2c(Nc3ccc(Cl)c(Br)c3)ncnc2cn1 [Tarloxotinib (bromide)] (10 µM) | 0 | 0 | 0 | 0 | 0 | 0 | 0 | 0 | 0 | 0
